Source: PMC11840111
These are yes or no findings as the source states them, for the method shown. In cells and extracts the contact can be indirect. Binding calls can cover weak binding; strength is not graded here.

Amino acid sequences for entries named in this document (tags omitted). A change or cut given only in a name is not applied to a line headed by its entry.
UniProt P67775: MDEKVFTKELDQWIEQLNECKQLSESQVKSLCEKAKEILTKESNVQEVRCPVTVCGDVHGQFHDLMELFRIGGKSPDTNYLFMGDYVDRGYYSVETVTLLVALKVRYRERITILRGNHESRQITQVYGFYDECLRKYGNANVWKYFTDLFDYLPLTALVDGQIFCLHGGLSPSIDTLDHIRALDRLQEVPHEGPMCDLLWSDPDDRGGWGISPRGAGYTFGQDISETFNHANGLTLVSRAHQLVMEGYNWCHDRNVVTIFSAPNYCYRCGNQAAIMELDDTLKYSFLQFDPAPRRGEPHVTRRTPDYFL

T1: PP2A subunit B isoform delta (human (endogenous in HK-2)) (UniProt Q66LE6)
T1 sequence: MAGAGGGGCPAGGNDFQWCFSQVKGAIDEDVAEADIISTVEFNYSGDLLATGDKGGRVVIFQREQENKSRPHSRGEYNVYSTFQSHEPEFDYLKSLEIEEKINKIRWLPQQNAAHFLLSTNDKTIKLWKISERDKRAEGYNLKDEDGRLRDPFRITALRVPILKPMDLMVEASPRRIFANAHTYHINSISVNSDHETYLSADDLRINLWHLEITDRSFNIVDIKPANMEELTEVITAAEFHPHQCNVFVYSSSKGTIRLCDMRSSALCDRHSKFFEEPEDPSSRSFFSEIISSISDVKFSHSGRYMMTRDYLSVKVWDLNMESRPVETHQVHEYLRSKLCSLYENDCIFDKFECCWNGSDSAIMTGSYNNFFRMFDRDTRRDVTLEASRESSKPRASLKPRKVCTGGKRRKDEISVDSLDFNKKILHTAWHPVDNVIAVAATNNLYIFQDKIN


Columns and labels:
Experiment in all cases: co-IP; endogenous proteins in cell lysates (HK-2 ER stress model, tunicamycin without or with Sephin1); antibody mixed with lysate in Cell Lysis Buffer overnight at 4 °C, protein A/G magnetic beads 1 h at 4 °C, low-pH elution, Western blot
[1] = biological target: T1, PP2A subunit B isoform delta (human (endogenous in HK-2))
[2] = biological target: AMPK (human (endogenous in HK-2))
[3] = biological target: PP2A catalytic subunit (PP2ACα/β) (human (endogenous in HK-2)) (UniProt P67775)

Row | binding [1] | binding [2] | binding [3] | Molecule
1 | binds | – | – | PP2A catalytic subunit (PP2ACα/β) (from UniProt P67775)
2 | – | binds | binds | PP2A subunit B isoform delta (protein, UniProt Q66LE6 1-453) MAGAGGGGCPAGGNDFQWCFSQVKGAIDEDVAEADIISTVEFNYSGDLLATGDKGGRVVIFQREQENKSRPHSRGEYNVYSTFQSHEPEFDYLKSLEIEEKINKIRWLPQQNAAHFLLSTNDKTIKLWKISERDKRAEGYNLKDEDGRLRDPFRITALRVPILKPMDLMVEASPRRIFANAHTYHINSISVNSDHETYLSADDLRINLWHLEITDRSFNIVDIKPANMEELTEVITAAEFHPHQCNVFVYSSSKGTIRLCDMRSSALCDRHSKFFEEPEDPSSRSFFSEIISSISDVKFSHSGRYMMTRDYLSVKVWDLNMESRPVETHQVHEYLRSKLCSLYENDCIFDKFECCWNGSDSAIMTGSYNNFFRMFDRDTRRDVTLEASRESSKPRASLKPRKVCTGGKRRKDEISVDSLDFNKKILHTAWHPVDNVIAVAATNNLYIFQDKIN
